These are yes or no findings as the source states them, for the method shown. Binding seen in cells or lysates may run through a third protein. For some assays here: Binding calls can cover weak binding; strength is not graded here.

Chains of the proteins cited; added tags and fusions are not shown. Lines headed by an entry give the natural chain unless they say otherwise; changes in a name come on top.
UniProt Q86VP1: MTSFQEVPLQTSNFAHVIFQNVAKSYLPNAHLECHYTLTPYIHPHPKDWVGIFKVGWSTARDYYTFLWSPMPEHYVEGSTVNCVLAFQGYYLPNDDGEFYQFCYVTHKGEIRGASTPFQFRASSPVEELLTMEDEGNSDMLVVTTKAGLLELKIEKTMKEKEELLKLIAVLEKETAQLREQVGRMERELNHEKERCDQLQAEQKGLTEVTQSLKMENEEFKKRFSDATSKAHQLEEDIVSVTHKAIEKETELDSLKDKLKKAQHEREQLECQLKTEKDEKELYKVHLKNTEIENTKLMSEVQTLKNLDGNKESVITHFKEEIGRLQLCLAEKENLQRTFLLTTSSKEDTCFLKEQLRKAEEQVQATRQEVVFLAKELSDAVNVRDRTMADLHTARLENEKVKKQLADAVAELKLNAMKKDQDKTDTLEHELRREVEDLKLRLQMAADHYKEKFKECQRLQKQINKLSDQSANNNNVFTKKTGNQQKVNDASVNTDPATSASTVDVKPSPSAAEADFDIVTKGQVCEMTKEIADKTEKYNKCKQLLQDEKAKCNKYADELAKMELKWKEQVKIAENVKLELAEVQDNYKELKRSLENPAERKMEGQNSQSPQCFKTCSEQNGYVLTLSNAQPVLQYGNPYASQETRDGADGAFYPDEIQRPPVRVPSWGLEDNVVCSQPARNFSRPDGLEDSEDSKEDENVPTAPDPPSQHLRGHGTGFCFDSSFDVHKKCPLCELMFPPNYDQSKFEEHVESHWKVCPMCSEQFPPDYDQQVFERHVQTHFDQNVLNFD

Binding data for one substance are collected here from paper PMC7737610.

For experiment [1], the target named is TagBFP-V5-TAX1BP1^(1–506ΔO domain) (UniProt Q86VP1). The experiment is described as follows: co-IP; HEK293T cells transfected with TagBFP-V5-TAX1BP1 variants (with myc-TAX1BP1 WT, myc-NBR1 WT or HA-FIP200 where indicated); extracts precipitated with anti-TagBFP magnetic beads; eluates immunoblotted. On the technique in general: In western blotting, separated proteins are transferred to a membrane and probed.

The target of experiment [2] is TagBFP-V5-TAX1BP1 ΔO domain (full length context) (UniProt Q86VP1). The description is as above.

Take “myc-TAX1BP1^WT (from UniProt Q86VP1-1 1-789)”: the binding result in experiment [1] was “no binding”; in experiment [2], “binds”.
